Experimental findings from publication PMC7948394 are described below.

By UniProt entry, the sequences of proteins in these tests, tags left out.
UniProt Q14209: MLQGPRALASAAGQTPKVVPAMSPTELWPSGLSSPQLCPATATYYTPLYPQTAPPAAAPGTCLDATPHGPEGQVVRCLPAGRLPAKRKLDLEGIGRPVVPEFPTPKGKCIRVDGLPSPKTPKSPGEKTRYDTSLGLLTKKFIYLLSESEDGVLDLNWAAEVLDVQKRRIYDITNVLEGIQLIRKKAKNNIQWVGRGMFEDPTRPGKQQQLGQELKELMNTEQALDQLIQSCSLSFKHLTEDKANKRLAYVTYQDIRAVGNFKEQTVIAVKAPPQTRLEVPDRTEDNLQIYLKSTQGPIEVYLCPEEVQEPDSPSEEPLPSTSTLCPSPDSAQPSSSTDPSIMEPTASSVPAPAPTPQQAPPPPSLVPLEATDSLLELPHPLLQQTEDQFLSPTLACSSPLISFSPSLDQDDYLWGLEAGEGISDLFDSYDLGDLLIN

The target of the experiment is T1, retinoblastoma tumor suppressor protein (RB) (human (endogenous in Jurkat)) (UniProt P06400).
T1 sequence: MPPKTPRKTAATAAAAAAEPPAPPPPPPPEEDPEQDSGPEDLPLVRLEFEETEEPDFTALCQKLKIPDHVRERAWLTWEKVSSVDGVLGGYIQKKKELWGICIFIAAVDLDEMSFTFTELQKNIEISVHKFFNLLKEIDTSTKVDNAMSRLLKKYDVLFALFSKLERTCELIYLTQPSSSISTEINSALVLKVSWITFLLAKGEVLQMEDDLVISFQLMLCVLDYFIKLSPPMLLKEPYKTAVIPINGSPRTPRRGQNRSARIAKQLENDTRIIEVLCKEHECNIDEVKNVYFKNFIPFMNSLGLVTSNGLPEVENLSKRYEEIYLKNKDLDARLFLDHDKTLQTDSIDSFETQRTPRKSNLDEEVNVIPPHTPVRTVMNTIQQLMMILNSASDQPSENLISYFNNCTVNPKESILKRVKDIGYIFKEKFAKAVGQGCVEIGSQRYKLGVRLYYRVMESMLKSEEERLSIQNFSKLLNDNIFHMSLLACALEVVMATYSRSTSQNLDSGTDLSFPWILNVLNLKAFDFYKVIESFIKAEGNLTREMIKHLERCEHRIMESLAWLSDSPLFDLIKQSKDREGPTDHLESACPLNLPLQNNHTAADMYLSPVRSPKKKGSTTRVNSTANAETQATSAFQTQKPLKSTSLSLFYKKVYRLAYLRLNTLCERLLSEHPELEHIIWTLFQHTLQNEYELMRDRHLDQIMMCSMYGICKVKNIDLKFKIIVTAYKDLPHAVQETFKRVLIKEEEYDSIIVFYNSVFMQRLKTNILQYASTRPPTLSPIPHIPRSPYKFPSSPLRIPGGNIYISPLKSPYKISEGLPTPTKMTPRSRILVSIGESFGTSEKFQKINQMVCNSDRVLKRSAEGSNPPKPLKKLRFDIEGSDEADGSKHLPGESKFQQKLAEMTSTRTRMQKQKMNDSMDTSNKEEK
The experiment is described as follows: co-IP; RB immunoprecipitated from Jurkat whole cell extracts (1 to 2 mg total protein) with anti-RB antibodies and Protein G Dynabeads, 4 °C overnight; cells treated with PBS or TCR cross-linked (anti-CD3, anti-CD28, secondary antibody) for 30 min; coimmunoprecipitating E2Fs detected by immunoblotting.

No constants are given. Whether binding was seen depends on the method and setting. Binding seen in cells or lysates may run through a third protein. Some entries that bind do so weakly or less than the wild type.

On to E2F2 (from UniProt Q14209 1-437), for which the binding result is “binds”.
